PubChem BioAssay AID1259308 – NCATS | 2017
Assay: 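Genes whose loss raises luciferase production in HEK293 cells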 (primary screen). Cell system: human HEK293 embryonic kidney cells stably expressing firefly luciferase (HEK-CMV-Luc2-Hygro). Reagents: single siRNA against human genes, 0.8 pmol siRNA per well. Timing: 72 h. Measurement: 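Luciferase light (ONE-Glo) measured on one replicate plate set and viability (CellTiter-Glo) on the other, scaled to a negative control siRNA, with robust z-scores and luciferase per cell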. Direction: total luciferase, z-score and total luciferase, % of control: higher = more reporter protein produced. Call rule: 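Active when the median/MAD z-score for overall luciferase is greater than 3; a gene was taken forward for validation with new siRNAs if at least two of its three siRNAs passed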. Meaning of the calls: active = raised luciferase; inactive = no rise.
The deposit covers about 59,000 reagents; shown is a random part of them. In the full data, about 1,510 (2.6%) were called active. 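Calls use total luciferase alone and ignore viability, so some active siRNAs may act by altering cell number.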 A number with no mark means an inactive call. Reagents against one gene are numbered here. Further read-outs or replicates are left out here. No sequences are given here.

EFCAB14 #1
- total luciferase, z-score: 0.01
- total luciferase, % of control: 82.1

EFCAB14 #2
- total luciferase, z-score: 0.127
- total luciferase, % of control: 84.4

EFCAB14 #3
- total luciferase, z-score: -1.19
- total luciferase, % of control: 58.2

HSPA8 #1
- total luciferase, z-score: 0.244
- total luciferase, % of control: 86.7

HSPA8 #2
- total luciferase, z-score: -0.57
- total luciferase, % of control: 70.6

HSPA8 #3
- total luciferase, z-score: -0.939
- total luciferase, % of control: 63.2

DECR1 #1
- total luciferase, z-score: -0.399
- total luciferase, % of control: 74

DECR1 #2
- total luciferase, z-score: 0.0347
- total luciferase, % of control: 82.6

DECR1 #3
- total luciferase, z-score: 0.2
- total luciferase, % of control: 85.9

SUMO3 #1
- total luciferase, z-score: -0.0954
- total luciferase, % of control: 80

SUMO3 #2
- total luciferase, z-score: -2.71
- total luciferase, % of control: 27.9

SUMO3 #3
- total luciferase, z-score: 1.35
- total luciferase, % of control: 109

SLC22A3 #1
- total luciferase, z-score: -0.168
- total luciferase, % of control: 78.5

SLC22A3 #2
- total luciferase, z-score: 1.05
- total luciferase, % of control: 103

SLC22A3 #3
- total luciferase, z-score: -0.278
- total luciferase, % of control: 76.4

STARD7-AS1 #1
- total luciferase, z-score: -0.398
- total luciferase, % of control: 74

STARD7-AS1 #2
- total luciferase, z-score: 0.157
- total luciferase, % of control: 85

STARD7-AS1 #3
- total luciferase, z-score: 0.822
- total luciferase, % of control: 98.2

TAP2 #1
- total luciferase, z-score: -0.966
- total luciferase, % of control: 62.7

TAP2 #2
- total luciferase, z-score: 1.56
- total luciferase, % of control: 113

TAP2 #3
- total luciferase, z-score: -0.505
- total luciferase, % of control: 71.8

In a second layout: results already given.
target,reagent,"total luciferase, z-score","total luciferase, % of control"
SUMO3,2,-2.71,27.9
SUMO3,3,1.35,109

The list goes on.
GNG8 #1
- total luciferase, z-score: 0.471
- total luciferase, % of control: 91.3

GNG8 #2
- total luciferase, z-score: -1.91
- total luciferase, % of control: 43.9

GNG8 #3
- total luciferase, z-score: -0.59
- total luciferase, % of control: 70.2

LY6E #1
- total luciferase, z-score: 2.62
- total luciferase, % of control: 134

LY6E #2
- total luciferase, z-score: 0.018
- total luciferase, % of control: 82.2

LY6E #3
- total luciferase, z-score: -1.79
- total luciferase, % of control: 46.3

SMARCD2 #1
- total luciferase, z-score: 0.274
- total luciferase, % of control: 87.3

SMARCD2 #2
- total luciferase, z-score: -0.286
- total luciferase, % of control: 76.2

SMARCD2 #3
- total luciferase, z-score: -0.836
- total luciferase, % of control: 65.3

MOB4 #1
- total luciferase, z-score: 2.01
- total luciferase, % of control: 122

MOB4 #2
- total luciferase, z-score: 0.819
- total luciferase, % of control: 98.2

MOB4 #3
- total luciferase, z-score: 0.727
- total luciferase, % of control: 96.4

WDR12 #1
- total luciferase, z-score: 1.02
- total luciferase, % of control: 102

WDR12 #2
- total luciferase, z-score: -1.71
- total luciferase, % of control: 47.9

WDR12 #3
- total luciferase, z-score: -0.506
- total luciferase, % of control: 71.8

GLYAT #1
- total luciferase, z-score: -2.58
- total luciferase, % of control: 30.5

GLYAT #2
- total luciferase, z-score: 0.0455
- total luciferase, % of control: 82.8

GLYAT #3
- total luciferase, z-score: 0.234
- total luciferase, % of control: 86.5

POM121L9P #1
- total luciferase, z-score: -0.711
- total luciferase, % of control: 67.7

POM121L9P #2
- total luciferase, z-score: 0.227
- total luciferase, % of control: 86.4

POM121L9P #3
- total luciferase, z-score: 1.09
- total luciferase, % of control: 103
